Test results published in publication PMC4490564, “Molecular snapshots of the Pex1/6 AAA+ complex in action” (Nature Communications, 2015).

T1: Pex1 (wild type, overexpressed in yeast) (yeast) (UniProt P24004)
T1 sequence: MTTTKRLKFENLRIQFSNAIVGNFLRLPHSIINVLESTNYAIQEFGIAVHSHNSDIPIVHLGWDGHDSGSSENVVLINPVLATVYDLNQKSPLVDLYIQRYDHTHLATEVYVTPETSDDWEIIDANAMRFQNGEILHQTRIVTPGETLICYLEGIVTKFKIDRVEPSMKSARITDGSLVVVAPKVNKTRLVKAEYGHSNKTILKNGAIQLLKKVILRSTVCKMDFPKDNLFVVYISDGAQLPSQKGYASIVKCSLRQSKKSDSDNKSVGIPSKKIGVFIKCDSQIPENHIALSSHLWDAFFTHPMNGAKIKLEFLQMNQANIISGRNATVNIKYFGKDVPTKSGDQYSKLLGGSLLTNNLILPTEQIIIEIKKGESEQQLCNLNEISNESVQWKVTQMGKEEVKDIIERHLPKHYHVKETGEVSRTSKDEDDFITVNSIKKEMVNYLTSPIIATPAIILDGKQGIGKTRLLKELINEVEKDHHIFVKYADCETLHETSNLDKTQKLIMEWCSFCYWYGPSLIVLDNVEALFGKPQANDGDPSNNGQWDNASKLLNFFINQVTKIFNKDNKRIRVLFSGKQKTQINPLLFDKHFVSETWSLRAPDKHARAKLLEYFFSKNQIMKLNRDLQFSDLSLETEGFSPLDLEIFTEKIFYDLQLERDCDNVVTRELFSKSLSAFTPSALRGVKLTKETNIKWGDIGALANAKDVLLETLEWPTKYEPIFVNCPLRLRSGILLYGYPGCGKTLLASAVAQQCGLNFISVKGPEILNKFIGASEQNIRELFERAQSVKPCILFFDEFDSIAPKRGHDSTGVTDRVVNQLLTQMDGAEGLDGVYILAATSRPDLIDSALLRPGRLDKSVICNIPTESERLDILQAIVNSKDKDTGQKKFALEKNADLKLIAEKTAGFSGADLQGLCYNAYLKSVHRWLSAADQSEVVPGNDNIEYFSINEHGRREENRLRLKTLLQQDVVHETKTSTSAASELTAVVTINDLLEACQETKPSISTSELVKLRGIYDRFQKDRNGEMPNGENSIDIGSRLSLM

B1: Pex6 (wild type, HisPex6) (natural protein, yeast, UniProt P33760 1-1030, looked up)
chain: MKASLTFSLSGIYAPCSISRDIYLEYGDKKAECLYGTIRLPQYGPGCTPGKIVHCVLDDSLPFCSIVVPSKLFGFMPTQPTMDFCYFEPILDNVVPVLDSVTFLINEQLYSKLMDLPQEMQQIQFLHYKYNINSMETVVHSRDILTSGLCQILNCSPFPQGLVDFTETQLILVNDTEQKLSALKYANEDEEYALPKIGTNSALSIDLESLPCTISRDLLRPAPHINDDNSIYAFTDAETLLRLDVTSGSFITVSNMGCVRLVKLFVLLLPNGFKKRTIYAPPKIIASFPDCSVVTISKSNIGHTDIPIANQVFISRVGGWLQSQKCFQNIILTTLKKFFSESKRILCQNDLIPIAFDSSMADLNIAEENDESDDEDELGQYYKNDSLVWFFVTSAELDCFSKDNSHFIIDPNRTKLITTNITNRRPLPLSRSNLQRYYGFAETFYYDLHIFPYVRQLVNILETSFNCSQRGITLNASVLLHSTTNNVGKATMVRFASKYLGIHLLEIDCLSLTSNSRQLDSTSKIIGYIRAKCENVLPYASPAVIFLAHLDSILLDVNANQDPEAIKLQKSINFEMSKLLDDFTFKFPGTTFVGSVNNIDNVPSSFRSHMRFEILVPVPSEAQRLRIFQWYLSSHELNRDVQQKVPVSYMDNISFSSLSSYSAGLTPLDIKSIVETARMTATARFYQESKKCGWLPQSILITQEDLSKATSKARNEFSVSIGAPQIPNVTWDDIGGIDFVKGEILDTIDMPLKHPELFTSGMKKRSGILFYGPPGTGKTLMAKAIATNFSLNFFSVKGPELLNMYIGESEANVRRVFQKAREAKPCVIFFDEIDSVAPKRGNQGDSGGVMDRIVSQLLAELDGMSTDADGVFVIGATNRPDLLDEALLRPGRFDKLLYLGIPDTDTKQLNILEALTRKFVLDNDVKLIELAKLCPFNYTGADFYALCSDAMLNAMSRIARMVEKKVSQHNELTGENISTRRWFDKIATKEDTKVVVKMEDFLKAQEQLTPSVSRAELNHYEAVRANFEGA
notes: Pex6, yeast, type II AAA+ ATPase; PEX6 amplified from genomic DNA; also called Pex6 of Pex1/6

Key:
Experiment in all cases: negative stain EM (single-particle analysis, 3D reconstruction); purified complexes at 40-50 ug/ml, incubated with ATPγS (2.5 mM), ATP (5 mM), ADP (5 mM) or ADP-AlFx, adsorbed on carbon grids, stained with 2% uranyl acetate; threefold symmetry imposed; both purified
[1] = target: T1, Pex1 (wild type, overexpressed in yeast) (yeast)
[2] = target: Pex1 with a Walker B mutation in the D2 domain (yeast) (UniProt P24004)
[3] = target: Pex1 with a Walker B mutation in the D2 domain (yeast) (UniProt P24004); remark: listed apart in the source

Molecule	binding [1]	binding [2]	binding [3]
Pex6 with a Walker B mutation in the D2 domain (from UniProt P33760)	binds	binds	–
B1	–	–	binds

Like-named read-outs stand apart in the source and are kept apart here. These are yes or no findings as the source states them, for the method shown. Binding calls can cover weak binding; strength is not graded here.
